The list shows a part of the results. Further columns of the screen follow, without active or inactive calls. Compounds called inactive in the main read-out are mostly missing here. The note in brackets gives the kind of curve behind each potency; many fits are weak.
Experiment: qHTS Assay for Modulators of Lamin A Splicing
Conditions: HeLa LMNA splicing GFP/RFP minigene ratio, 48 h
Procedure, shortened: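 Read-out is the ratio of GFP to DsRed2 object intensity, acquired by 488 nm laser-scanning cytometry on HeLa lamin A-EGFP minigene reporter cells. Compound incubation 48 hrs at 37 °C in Opti-MEM with 2% FBS; DMSO 0.5% final.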

[1] = measured here: GFP splicing reporter channel
[2] = measured here: RFP viability control channel

SMILES	AC50 [1]	AC50 [2]
COc1ccc2c3c1O[C@H]1C(=O)CC[C@H]4[C@@H](C2)N(C)CC[C@]314	6.31 µM [falling, partial curve, poor fit]	8.91 µM [falling, partial curve, poor fit]
CCOc1c(Cl)cc(CNc2ccc(S(N)(=O)=O)cc2)cc1OC		10 µM [rising, partial curve]
Cc1ccc(NC(=O)N(Cc2ccc3c(c2)OCO3)C2CCN(Cc3ccccc3)CC2)cc1F		35.5 µM [rising, single point]
CN(C)C(=O)Oc1ccc[n+](C)c1		0.891 µM [rising, partial curve]
O=C(c1cccc([N+](=O)[O-])c1)C12CN3CN(CN(C3)C1)C2	0.501 µM [rising, full curve, poor fit]	
Cc1cccc(OP(=O)(Nc2ccc(F)cc2)Oc2cccc(C)c2)c1	6.31 µM [rising, partial curve]	12.6 µM [rising, partial curve]
O=[N+]([O-])/C=C/c1c(OCc2ccccc2)ccc2ccccc12		17.8 µM [rising, partial curve]
O=c1[nH]c(SCc2ccccc2Cl)nc2c1CCCC2	35.5 µM [rising, single point]	31.6 µM [rising, single point]
COc1ccc(OC)c(NC2=NCCCS2)c1		0.398 µM [falling, full curve, poor fit]
O=C1C2CCCN2C(c2cccnc2)N1c1ccc(Cl)cc1 (configuration not stated)		11.2 µM [rising, single point]
CCc1c(C(=O)OC)ncc2[nH]c3cc(OC)c(OC)cc3c12	14.1 µM [falling, partial curve]	0.00398 µM [falling, full curve, poor fit]
c1ccc(CNc2ncnc3nc[nH]c23)cc1	1.12 µM [falling, single point]	3.16 µM [falling, single point]
O=C1Nc2ccc(Cl)cc2C(c2ccccc2)=NC1O (configuration not stated)	0.000891 µM [falling, full curve, poor fit]	0.447 µM [falling, partial curve, poor fit]
Cc1ccc(-c2nnc(C)c(N3CCCC3)n2)cc1		4.47 µM [falling, single point]
C#CCOc1cc(C2C3=C(COC3=O)Nc3cc4c(cc32)OCO4)ccc1OC (configuration not stated)	1.26 µM [falling, full curve, poor fit]	1.26 µM [falling, full curve, poor fit]
CN[C@@H](C)[C@H]1CC[C@@H](N)[C@@H](O[C@@H]2[C@@H](O)[C@@H](O[C@H]3OC[C@@](C)(O)[C@@H](NC)[C@@H]3O)[C@H](N)C[C@@H]2N)O1 (tested in a mixture with another compound)	2.24 µM [falling, single point]	1 µM [falling, partial curve, poor fit]
CN1[C@H]2CC(OC(=O)[C@H](CO)c3ccccc3)C[C@H]1[C@H]1O[C@H]12 (some centres not stated)	0.000794 µM [falling, full curve, poor fit]	11.2 µM [falling, partial curve, poor fit]
FC(F)(F)c1ccc2c(c1)N(CCCN1CCN(CCCl)CC1)c1ccccc1S2		15.8 µM [rising, partial curve, poor fit]
CCC(=O)C1=C(c2cccc([N+](=O)[O-])c2)N(C(=O)CC)n2c(nnc2C2CCCCC2)S1	0.708 µM [rising, partial curve, poor fit]	4.47 µM [rising, partial curve]
O=C(CCC1CCCC1)c1c(O)c2ccccc2oc1=O	35.5 µM [rising, single point]	25.1 µM [rising, partial curve]
O=C1NC(=O)C(=Cc2ccc(OCC(=O)N3CCOCC3)cc2)C(=O)N1	0.158 µM [falling, single point]	
Cc1ccc(O)c(CN2CCN(c3ccccc3)CC2)c1		31.6 µM [rising, single point]
CC[N+](CC)(CC#CCO)CC#Cc1ccccc1	10 µM [falling, single point]	0.0178 µM [falling, partial curve, poor fit]
COc1cc2c(c(OC)c1OC)-c1ccc(O)c(=O)cc1[C@H](N)CC2	0.0631 µM [falling, full curve, poor fit]	
CCOC(=O)c1sc(N=Nc2c(O)[nH]c(=O)[nH]c2=O)c(C(=O)OCC)c1C		0.0282 µM [falling, full curve, poor fit]

Random excerpt: two compounds from above.
SMILES	AC50 [1]	AC50 [2]
Cc1ccc(-c2nnc(C)c(N3CCCC3)n2)cc1		4.47 µM [falling, single point]
CCOC(=O)c1sc(N=Nc2c(O)[nH]c(=O)[nH]c2=O)c(C(=O)OCC)c1C		0.0282 µM [falling, full curve, poor fit]
